According to patent publication US6797511:

Target: cadherin protein coexpressed in vitro with ALARM
Assay: co-immunoprecipitation with anti-ALARM sera, proteins coexpressed in vitro

- binding: binds
B1: ALARM (adherens-junction linked arm protein), captured protein transcribed and translated in vitro (protein)
chain: MRSLSQSQGVPLPPAHTGTYRTSTAPSSPGVDSVPLQRTGSQHGPQNAAAATFQRASYAAGPASNYADPYRQLQYCPSVESPYSKSGPALPPEGTLARSPSIDSIQKDPREFGWRDPELPEVIQMLQHQFPSVQSNAAAYLQHLCFGDNKIKAEIRRQGGIQLLVDLLDHRMTEVHRSACGALRNLVYGKANDDNKIALKNCGGIPALVRLLRKTTDLEIRELVTGVLWNLSSCDALKMPIIQDALAVLTNAVIIPHSGWENSPLQDDRKIQLHSSQVLRNATGCLRNVSSPGEEARRRMRECDGLTDALLYVIQSALGSSEIDSKTVENCVCILRNLSYRLAAETSQGQHMGTDELDGLLCGEANGKDAESSGCWGKKKKKKKSQDQWDGVGPLPDCAEPPKGIQMLWHPSIVKPYLTLLSECSNPDTLEGAAGALQNLAAGSWKWSVYIRAAVRKEKGRPILVELLRIDNDRVACAVATALRNMALDVRNKELIGKYAMRDLVHRLPGGNNSNNTASKAMSDDTVTAVCCTLHEVITKNMENAKALRDAGGIEKLVGISKSKGDKHSPKVVKAASQVLNSMWQYRDLRSLYKKDGWSQYHFVASSSTIERDRQRPYSSSRTPSISPVRVSPNNRSASAPASPREMISLKERKTDYECTGSNATYHGAKGEHTSRKDAMTAQNTGISTLYRNSTRNYDESFFEDQVHHRPPASEYTMHLGLKSTGNYVDFYSAARPYSELNYETSHYPASPDSWV

These are yes or no findings as the source states them, for the method shown. Binding seen in cells or lysates may run through a third protein. Binding can be weak; no strength is given.
